# Percent effect of library compounds

Chains of the proteins cited; added tags and fusions are not shown.
UniProt I6X8D2, whole entry: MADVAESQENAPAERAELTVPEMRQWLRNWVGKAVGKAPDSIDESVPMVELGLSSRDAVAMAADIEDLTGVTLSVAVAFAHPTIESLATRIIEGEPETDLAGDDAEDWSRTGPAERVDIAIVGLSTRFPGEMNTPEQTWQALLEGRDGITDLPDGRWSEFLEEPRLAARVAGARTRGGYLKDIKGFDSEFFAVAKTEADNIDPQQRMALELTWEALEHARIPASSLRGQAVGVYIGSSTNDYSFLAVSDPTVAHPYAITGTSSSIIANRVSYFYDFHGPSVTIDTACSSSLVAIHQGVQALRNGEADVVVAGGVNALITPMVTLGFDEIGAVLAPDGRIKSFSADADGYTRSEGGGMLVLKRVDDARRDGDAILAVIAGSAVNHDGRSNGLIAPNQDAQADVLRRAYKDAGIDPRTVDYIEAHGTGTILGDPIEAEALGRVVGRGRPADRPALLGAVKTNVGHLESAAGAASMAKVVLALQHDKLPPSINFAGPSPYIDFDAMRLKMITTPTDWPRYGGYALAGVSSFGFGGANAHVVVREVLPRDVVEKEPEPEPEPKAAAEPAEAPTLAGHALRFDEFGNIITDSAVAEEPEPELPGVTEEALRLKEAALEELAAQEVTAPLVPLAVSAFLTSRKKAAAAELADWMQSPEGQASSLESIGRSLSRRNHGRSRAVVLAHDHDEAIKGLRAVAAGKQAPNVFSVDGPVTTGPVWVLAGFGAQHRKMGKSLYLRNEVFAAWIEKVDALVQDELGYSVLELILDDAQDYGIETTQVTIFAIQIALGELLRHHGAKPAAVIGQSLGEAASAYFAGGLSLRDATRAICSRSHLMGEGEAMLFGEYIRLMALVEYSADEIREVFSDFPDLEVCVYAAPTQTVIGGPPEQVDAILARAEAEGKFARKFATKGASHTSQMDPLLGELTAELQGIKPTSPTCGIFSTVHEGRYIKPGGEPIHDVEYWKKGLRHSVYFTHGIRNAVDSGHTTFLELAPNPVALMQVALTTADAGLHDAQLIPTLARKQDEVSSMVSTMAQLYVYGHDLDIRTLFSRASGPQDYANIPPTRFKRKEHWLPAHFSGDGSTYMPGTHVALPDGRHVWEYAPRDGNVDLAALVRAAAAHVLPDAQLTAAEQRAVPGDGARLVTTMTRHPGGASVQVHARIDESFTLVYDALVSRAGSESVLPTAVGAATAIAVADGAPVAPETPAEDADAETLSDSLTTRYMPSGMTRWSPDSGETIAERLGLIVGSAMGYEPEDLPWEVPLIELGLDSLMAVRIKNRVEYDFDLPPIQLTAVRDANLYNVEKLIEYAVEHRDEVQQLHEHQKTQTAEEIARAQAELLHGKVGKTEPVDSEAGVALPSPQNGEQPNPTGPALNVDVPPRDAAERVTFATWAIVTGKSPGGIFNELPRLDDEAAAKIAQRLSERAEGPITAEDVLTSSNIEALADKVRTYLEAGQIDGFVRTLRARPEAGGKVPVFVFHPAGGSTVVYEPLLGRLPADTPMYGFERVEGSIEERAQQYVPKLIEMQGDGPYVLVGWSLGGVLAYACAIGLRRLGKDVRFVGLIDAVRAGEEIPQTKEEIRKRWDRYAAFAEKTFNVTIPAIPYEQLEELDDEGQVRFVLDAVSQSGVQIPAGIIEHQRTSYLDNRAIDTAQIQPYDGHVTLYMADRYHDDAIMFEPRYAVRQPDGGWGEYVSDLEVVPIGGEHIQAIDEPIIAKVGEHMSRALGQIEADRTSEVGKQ

Each number is a percent effect as filed. The controls that fix the scale are not given in the record; negative values are as filed. Compounds were drawn at random from those tested, without regard to their results.

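Polyketide synthase Pks13, Mycobacterium tuberculosis (UniProt I6X8D2). Enzyme assay of the thioesterase domain of polyketide synthase 13; the read-out is not stated. Compounds at 30 µM. The record gives no direction; the compounds picked for IC50 retests had high values, so higher reads as stronger inhibition. Size under these conditions: about 67,000 compounds, about 300 of them at 50% or above in at least one test.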

compound,effect
CC(=O)N1CCC1c1cc(N2CCSCC2)nc(C)n1 (configuration not stated),0.7726%
Cc1cc(CCC2CN(Cc3ccccc3C(=O)O)CCO2)ncn1 (configuration not stated),1.711%
Cc1cccc(-c2ccc(C(=O)NCC3CCOC3)c(=O)[nH]2)c1 (configuration not stated),-6.837%
c1cnnc(N2CCCC2CNCc2nnc(C3CC3)o2)c1 (configuration not stated),-8.294%
Cn1cc(C2CCCN2CCCc2nc(-c3cccs3)no2)cn1 (configuration not stated),8.409%
CN(CC(=O)NC(Cc1ccsc1)c1cccnc1)Cc1ccccn1 (configuration not stated),-21.65%
CN(CC(=O)N1CCOCC(CO)C1)Cc1ccc(F)cc1 (configuration not stated),-8.666%
CC(C)C(=O)NC1CCCN(C(=O)c2ccccc2O)C1 (configuration not stated),-0.1474%
CN1CCOCC2(CCCN(C(=O)Cc3ccncc3)C2)C1 (configuration not stated),-21.3%
Cn1cc(NC(=O)Cn2c(CS(C)(=O)=O)nc3ccccc32)cn1,-34.88%
CCN(C(=O)CN1CCC(c2ccccc2)C1)C1CC1 (configuration not stated),-22.03%
Cc1ccc(F)c(OC2(C(=O)O)CCN(C(=O)N3CCCC3)CC2)c1,2.439%
CCN(Cc1ccc(C(C)=O)cc1)CC1CCOCC1,-0.4393%
Cc1ccc(NC(=O)CS(=O)(=O)NC2CCC(C)CC2)nc1 (configuration not stated),-42.35%
COCC(=O)N1C[C@@H]2COC[C@]2(COC)C1,-22.92%
CCOC1COC2(CCN(S(=O)(=O)c3ccc(F)cc3)CC2)C1 (configuration not stated),-16.87%
Cc1cccc2c1nc1n2[C@@H](CNC(=O)c2ccccn2)COC1,-31.79%
O=C(O)CCCNC(=O)N1CCc2c([nH]c3ccc(Cl)cc23)C1,-4.934%
CN(C)C(=O)[C@H]1CCS(=O)(=O)[C@@H]2CN(c3ncc(F)cn3)C[C@H]12,-822.8%
COc1ccccc1OC1(C(=O)O)CCN(c2nccnc2OC)CC1,-14.5%
O=C(c1cccnc1)N1C[C@@H]2OCCN(CCN3CCCC3)[C@@H]2C1,-5.675%
Cc1cc(C)n(C2CN(CC(=O)NC(C3CC3)C3CC3)C2)n1,-26.71%
CN(C)c1ccc(NC(=O)c2cccc(N(C)C)c2)nc1,32.24%
COc1ccc(CN2CCn3cccc3C2C)cc1F (configuration not stated),-4.11%
Cn1ncnc1NCc1ccc(Cl)cc1,-8.453%
CC(C)[C@H](Nc1cc(-c2ccncc2)nc2ccnn12)C(N)=O,3.776%
Cc1cccc(CN(Cc2cccnc2)C2CC(C)(C)NC(C)(C)C2)n1,4.43%
Cc1cc(N2CCCC2c2cc(Nc3cnccn3)nc(C)n2)ncn1 (configuration not stated),-6.081%
Cc1noc(CCCc2nc(C3CCOC3)no2)n1 (configuration not stated),-0.4498%
N#Cc1ccccc1CN1C[C@H]2CC[C@@H]1CN(C(=O)c1cccnc1)C2,-15.75%
CC(=O)N1CCCC(c2nc(-c3ccccc3)c[nH]2)C1 (configuration not stated),-21.13%
CC(=O)N1CCCC(C(=O)NCCOc2cc(C)cc(C)c2)C1 (configuration not stated),-20.94%
O=C(c1cccnc1N1CCCC1)N1CCOC(c2ccccc2)C1 (configuration not stated),-22.36%
COc1ccc(NCc2nc(=O)n(CCC(C)C)[nH]2)cc1,-36.62%
CCC[C@@H](NC(N)=O)C(=O)N1CCc2c(Cl)cccc2C1,-31.74%
O=C(CCCNCc1ccc(Cl)c2cccnc12)NC1CC1,11.51%
COC(=O)CC1CN(Cc2c(Cl)ccc3cccnc23)CCO1 (configuration not stated),-47.63%
CC1CCN(C(=O)NCCc2cc(F)ccc2F)C1 (configuration not stated),-14.38%
COC(=O)C(NC(=O)c1ccc(NC2CC2)nc1)c1ccccc1 (configuration not stated),-1.615%
N#Cc1cccc(S(=O)(=O)N2CCCCC2CCN2CCCC2)c1 (configuration not stated),-2.17%
O=C(N1CCCC1)N1C[C@@H](OCc2cccnc2)[C@H]2OCCC[C@H]21,-6.961%
CCc1cnc(CN(C)C2CCN(CC3CCC3)C2)o1 (configuration not stated),-7.633%
CCC(CNC1CCN(C(=O)N(C)C)CC1)Oc1ccccc1C (configuration not stated),-4.65%
COc1cccc(OCCCc2cc(C#N)ccn2)c1,-2.851%
CCc1nc(C2CCCN2C(=O)c2ccc(N(C)C)nn2)no1 (configuration not stated),-16.91%
O=S(=O)(c1ccccc1)N1CCC2(CCCN2CC2CCCC2)C1 (configuration not stated),-27.85%
CN(C)C(=O)c1cccnc1SCc1ccccc1C#N,-7.436%
CNc1nc2c(c(C(=O)N3CCCC3)n1)CN(C(=O)c1cccs1)CC2,-4.455%
COc1cccc(CC(=O)N2CCCC2c2nc(C)c(F)c(O)n2)c1 (configuration not stated),2.71%
Cc1cnn(CC(C)Nc2cnc3ccccc3n2)c1 (configuration not stated),10.99%
Cc1nc(CNC(=O)c2cc(COc3cccc(F)c3)[nH]n2)n[nH]1,1.806%
CNC(=O)N1CC[C@H]2N(C)CC[C@@]2(C(=O)Nc2ccccc2)CC1,-20.22%
COCCN1CCN(Cc2cnc(C)nc2)CC1,8.001%
COCCn1cc2c(n1)C(CNCc1ccco1)OCC2 (configuration not stated),-9.444%
Cc1cnc(N2C(=O)CSC2c2ccc(F)cc2)s1 (configuration not stated),6.786%
Cc1noc(C2CCC3(CCN(C(=O)C4CCOCC4)CC3)O2)n1 (configuration not stated),-17.75%
COc1c(CNC2CCc3c(Cl)cccc32)c(C)nn1C (configuration not stated),-11.34%
CC(C)N1CCC(CC(=O)N2CCN(Cc3nccn3C)CC2)CC1,-9.633%
Cc1oc(-c2cccs2)nc1C(=O)N1CCCC1Cn1cccn1 (configuration not stated),-9.36%
CCn1cc2c(n1)CN(CC1CC1)CC2COCC1CC1 (configuration not stated),-42.28%
CC(CS(C)(=O)=O)N(C(=O)CCc1ccc(Cl)s1)C1CC1 (configuration not stated),-2.573%
CCOC(=O)N1CCN(c2nc(NCCO)c3ccccc3n2)CC1,-20.32%
Cc1nc(C2(O)CCCNCC2)sc1CCOc1ccc(Cl)cc1 (configuration not stated),-26.16%
O=C1CSC(c2ccc3c(c2)OCO3)c2cn[nH]c2N1 (configuration not stated),-41.73%
CCN1CCCC1CN(CCN(C)C)S(=O)(=O)c1ccccc1C#N (configuration not stated),-15.7%
COCc1cnc2n1CCN(C(=O)c1cn(C)c3ccccc13)C2C (configuration not stated),-6.101%
Cc1nc(CCCNC(=O)c2c(F)cc(F)cc2F)n[nH]1,-1.289%
Cc1cccc(N2CC[C@H]3CO[C@H](CN(C)Cc4ccco4)[C@H]3C2)n1,9.96%
Cn1ccnc1C(=O)N[C@@H]1CN(Cc2cccs2)[C@@H]2CCCO[C@@H]21,-23.66%
O=S1(=O)NC2(CCCN(Cc3ccc(F)cc3)C2)COc2ccccc21 (configuration not stated),-30.53%
Cc1nn(C)c(Cl)c1C1CCCN1C(=O)c1ccc2c(c1)COC2 (configuration not stated),6.315%
CCc1nnsc1C(=O)NCc1nnc2n1CCCCC2,-7.744%
O=C(C1CCN(Cc2nc(-c3ccco3)no2)CC1)N1CCCC1,-16.18%
Cc1nc(CCNc2nc(N(C)C)nc3c2CCCC3)cc(=O)[nH]1,-16.96%
Cn1ccc(C(=O)N2CCOC(c3ccccn3)C2)cc1=O (configuration not stated),8.418%
COCCO[C@H]1COCCN(Cc2ccc(OC)cc2)C1,1.202%
N#Cc1cccc(N2CCCC3(C2)CN(c2nncs2)CCO3)c1 (configuration not stated),1.599%
COc1cccc(CNC(=O)CCNS(=O)(=O)c2ccc(C)cc2)c1,1.781%
CNC(=O)C(C)(C)N1CCC[C@H]1C(=O)NC1CC1,-31.09%

Once more, the final 7:

O=C(C1CCN(Cc2nc(-c3ccco3)no2)CC1)N1CCCC1 gave -16.18%.
Cc1nc(CCNc2nc(N(C)C)nc3c2CCCC3)cc(=O)[nH]1 gave -16.96%.
Cn1ccc(C(=O)N2CCOC(c3ccccn3)C2)cc1=O (configuration not stated) gave 8.418%.
COCCO[C@H]1COCCN(Cc2ccc(OC)cc2)C1 gave 1.202%.
N#Cc1cccc(N2CCCC3(C2)CN(c2nncs2)CCO3)c1 (configuration not stated) gave 1.599%.
COc1cccc(CNC(=O)CCNS(=O)(=O)c2ccc(C)cc2)c1 gave 1.781%.
CNC(=O)C(C)(C)N1CCC[C@H]1C(=O)NC1CC1 gave -31.09%.

Data taken from ChEMBL document CHEMBL3988442, “University of Dundee, Small-Polar-MMV Screening Library” (2021).